From article PMC12691606
These are yes or no findings as the source states them, for the method shown. For some assays here: A result given as binding can be weak or reduced; the word gives no strength. Where a sequence is shown, tags or fusion partners need not be part of it. For some assays here: In cells and extracts the contact can be indirect.

Experiments:
[1] = target: T1, EcCXCR4b-6His (pcDNA4.0-EcCXCR4b-6His) (Epinephelus coioides) (UniProt G0XMT3); experiment: co-IP; cells co-transfected with the two plasmids for 24 h; lysate on resin immobilized with anti-His antibody overnight at 4°C (Pierce Co-IP Kit); western blotting
T1 sequence: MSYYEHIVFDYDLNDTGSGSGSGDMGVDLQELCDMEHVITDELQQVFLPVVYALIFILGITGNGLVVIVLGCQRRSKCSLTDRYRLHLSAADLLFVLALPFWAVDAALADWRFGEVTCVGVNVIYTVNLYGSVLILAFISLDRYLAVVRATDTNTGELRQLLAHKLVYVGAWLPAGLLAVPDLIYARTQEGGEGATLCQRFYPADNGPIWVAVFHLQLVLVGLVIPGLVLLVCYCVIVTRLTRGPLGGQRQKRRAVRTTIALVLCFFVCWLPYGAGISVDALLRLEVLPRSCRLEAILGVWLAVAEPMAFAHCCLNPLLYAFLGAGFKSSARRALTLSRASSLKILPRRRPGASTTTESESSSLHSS

[2] = target: T2, GFP-EcCXCR4b (Epinephelus coioides) (UniProt G0XMT3); experiment: co-IP; GS cells co-transfected for 24 h; lysates immunoprecipitated with anti-GFP antibodies; western blotting
T2 sequence: T1 sequence

[3] = target: T3, His-EcCXCR4b recombinant protein (pET-32a-EcCXCR4b) (Epinephelus coioides) (UniProt G0XMT3); experiment: ELISA; His-EcCXCR4b serially diluted in PBS and coated on 96-well plates overnight at 4°C; blocked with 2% BSA; purified His-CP added for 2 h; mouse anti-His and HRP anti-mouse IgG; OD450; both purified
T3 sequence: T1 sequence

[4] = target: T1, EcCXCR4b-6His (pcDNA4.0-EcCXCR4b-6His) (Epinephelus coioides); experiment: co-IP; RGNNV-infected GS cells transfected with pcDNA4.0-EcCXCR4b-6His; lysate immunoprecipitated with anti-His antibody; western blotting
[5] = target: CP-6His (pcDNA4.0-CP-6His) (red-spotted grouper nervous necrosis virus (RGNNV)); experiment: co-IP; cells co-transfected with the two plasmids for 24 h; lysate on resin immobilized with anti-His antibody overnight at 4°C (Pierce Co-IP Kit); western blotting
[6] = target: His-ΔLR (red-spotted grouper nervous necrosis virus (RGNNV)); experiment: as above
[7] = target: His-ΔN-ARM (red-spotted grouper nervous necrosis virus (RGNNV)); experiment: as above
[8] = target: His-ΔN-arm (red-spotted grouper nervous necrosis virus (RGNNV)); experiment: as above
[9] = target: His-ΔP-domain (red-spotted grouper nervous necrosis virus (RGNNV)); experiment: as above
[10] = target: His-ΔS-domain (red-spotted grouper nervous necrosis virus (RGNNV)); experiment: as above
[11] = target: His-CP fusion protein (pET-32a-CP) (red-spotted grouper nervous necrosis virus (RGNNV)); experiment: pull-down; purified His-CP incubated with lysate of GS cells expressing GFP-EcCXCR4b; complexes enriched on resin immobilized with His antibodies at 4°C overnight; immunoblot; only the target purified

GFP-CP (pGFP-CP)
binding [1]: binds

Clathrin-6His (pcDNA4.0-Clathrin-6His)
binding [2]: binds

His-CP fusion protein (pET-32a-CP)
binding [3]: binds

RGNNV capsid protein (CP) of the virus
binding [4]: binds

B1: GFP-EcCXCR4b (receptor, UniProt G0XMT3 1-367)
chain: T1 sequence
binding [5]: binds
binding [6]: no binding
binding [7]: binds
binding [8]: binds
binding [9]: binds
binding [10]: binds
binding [11]: binds
